Test results published in PMC9344665.
These are yes or no findings as the source states them, for the method shown. Some binding calls cover weakened binding; strength is not graded here. Where a sequence is shown, tags or fusion partners need not be part of it.

How the values were obtained:
Experiment in all cases: co-purification of coexpressed proteins (Ni-NTA, heparin, size-exclusion chromatography); His6-FARSA and untagged FARSB coexpressed in E. coli Rosetta (DE3); lysate on Ni-NTA (20 mM Tris-HCl pH 8.5, 500 mM NaCl), His6-tag removed with HRV3C, HiTrap Heparin HP with a NaCl gradient, then SEC in 20 mM HEPES-NaOH pH 7.5, 150 mM NaCl; SDS-PAGE of fractions
[1] = target: T1, FARSA E418D variant (human) (UniProt Q9Y285)
T1 sequence: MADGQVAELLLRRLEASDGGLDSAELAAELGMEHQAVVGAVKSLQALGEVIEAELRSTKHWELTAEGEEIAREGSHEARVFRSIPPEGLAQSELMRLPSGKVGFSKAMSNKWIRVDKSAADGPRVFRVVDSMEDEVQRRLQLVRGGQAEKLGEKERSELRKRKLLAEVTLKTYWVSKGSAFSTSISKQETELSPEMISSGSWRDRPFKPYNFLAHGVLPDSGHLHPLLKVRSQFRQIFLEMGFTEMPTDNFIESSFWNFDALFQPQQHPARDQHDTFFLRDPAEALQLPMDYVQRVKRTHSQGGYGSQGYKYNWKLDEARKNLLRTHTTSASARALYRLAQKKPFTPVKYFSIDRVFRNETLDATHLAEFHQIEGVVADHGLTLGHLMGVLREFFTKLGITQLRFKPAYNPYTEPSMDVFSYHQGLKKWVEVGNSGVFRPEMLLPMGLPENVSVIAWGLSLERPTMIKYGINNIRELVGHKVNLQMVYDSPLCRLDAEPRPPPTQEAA

[2] = target: T2, FARSA F277V variant (human) (UniProt Q9Y285)
T2 sequence: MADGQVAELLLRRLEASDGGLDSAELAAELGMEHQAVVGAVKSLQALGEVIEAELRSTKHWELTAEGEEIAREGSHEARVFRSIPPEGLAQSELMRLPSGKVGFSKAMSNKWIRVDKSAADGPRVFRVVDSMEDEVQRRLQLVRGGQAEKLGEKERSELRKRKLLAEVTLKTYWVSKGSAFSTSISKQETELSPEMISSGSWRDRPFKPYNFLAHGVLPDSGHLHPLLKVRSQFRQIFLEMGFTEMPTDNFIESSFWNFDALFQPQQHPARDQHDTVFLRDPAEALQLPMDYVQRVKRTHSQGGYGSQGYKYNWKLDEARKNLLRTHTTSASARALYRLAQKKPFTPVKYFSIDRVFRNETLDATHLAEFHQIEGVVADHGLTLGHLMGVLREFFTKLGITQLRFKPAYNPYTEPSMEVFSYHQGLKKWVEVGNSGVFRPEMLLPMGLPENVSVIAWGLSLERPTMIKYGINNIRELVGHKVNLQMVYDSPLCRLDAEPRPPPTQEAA

[3] = target: T3, FARSA N410K variant (human) (UniProt Q9Y285)
T3 sequence: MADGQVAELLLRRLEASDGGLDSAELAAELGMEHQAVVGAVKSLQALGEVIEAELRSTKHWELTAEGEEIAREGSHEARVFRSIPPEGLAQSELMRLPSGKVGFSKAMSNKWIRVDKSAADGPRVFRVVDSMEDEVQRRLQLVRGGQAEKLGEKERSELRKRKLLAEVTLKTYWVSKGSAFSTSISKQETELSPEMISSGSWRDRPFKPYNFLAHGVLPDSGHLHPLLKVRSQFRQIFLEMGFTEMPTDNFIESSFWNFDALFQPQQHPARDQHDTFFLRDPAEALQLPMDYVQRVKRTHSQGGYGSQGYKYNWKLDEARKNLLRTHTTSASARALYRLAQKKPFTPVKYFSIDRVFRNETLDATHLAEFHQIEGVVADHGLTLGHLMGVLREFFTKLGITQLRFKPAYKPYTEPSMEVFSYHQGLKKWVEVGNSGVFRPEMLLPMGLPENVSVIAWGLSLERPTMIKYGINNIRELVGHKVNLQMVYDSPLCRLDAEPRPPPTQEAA

[4] = target: T4, wild-type FARSA (α subunit of cytosolic phenylalanyl-tRNA synthetase FARS1) (human) (UniProt Q9Y285)
T4 sequence: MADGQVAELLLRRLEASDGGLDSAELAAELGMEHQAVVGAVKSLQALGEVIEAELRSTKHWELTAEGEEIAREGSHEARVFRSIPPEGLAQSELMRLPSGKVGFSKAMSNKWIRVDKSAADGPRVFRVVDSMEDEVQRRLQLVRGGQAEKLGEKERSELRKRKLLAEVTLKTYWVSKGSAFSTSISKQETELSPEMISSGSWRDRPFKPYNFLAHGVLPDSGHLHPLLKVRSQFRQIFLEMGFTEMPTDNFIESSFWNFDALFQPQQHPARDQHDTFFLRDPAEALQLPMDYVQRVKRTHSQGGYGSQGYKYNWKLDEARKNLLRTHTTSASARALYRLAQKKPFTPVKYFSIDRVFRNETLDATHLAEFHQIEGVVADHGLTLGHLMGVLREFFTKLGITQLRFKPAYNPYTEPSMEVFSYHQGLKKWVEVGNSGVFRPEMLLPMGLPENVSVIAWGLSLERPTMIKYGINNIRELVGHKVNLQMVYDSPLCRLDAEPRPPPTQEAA

- binding [1]: binds
- binding [2]: binds
- binding [3]: binds
- binding [4]: binds
B1: FARSB (β subunit of cytosolic phenylalanyl-tRNA synthetase FARS1), no affinity tag (enzyme, UniProt Q9NSD9 1-584)
chain: MPTVSVKRDLLFQALGRTYTDEEFDELCFEFGLELDEITSEKEIISKEQGNVKAAGASDVVLYKIDVPANRYDLLCLEGLVRGLQVFKERIKAPVYKRVMPDGKIQKLIITEETAKIRPFAVAAVLRNIKFTKDRYDSFIELQEKLHQNICRKRALVAIGTHDLDTLSGPFTYTAKRPSDIKFKPLNKTKEYTACELMNIYKTDNHLKHYLHIIENKPLYPVIYDSNGVVLSMPPIINGDHSRITVNTRNIFIECTGTDFTKAKIVLDIIVTMFSEYCENQFTVEAAEVVFPNGKSHTFPELAYRKEMVRADLINKKVGIRETPENLAKLLTRMYLKSEVIGDGNQIEIEIPPTRADIIHACDIVEDAAIAYGYNNIQMTLPKTYTIANQFPLNKLTELLRHDMAAAGFTEALTFALCSQEDIADKLGVDISATKAVHISNPKTAEFQVARTTLLPGLLKTIAANRKMPLPLKLFEISDIVIKDSNTDVGAKNYRHLCAVYYNKNPGFEIIHGLLDRIMQLLDVPPGEDKGGYVIKASEGPAFFPGRCAEIFARGQSVGKLGVLHPDVITKFELTMPCSSLEIN
